Results as given in PubChem BioAssay AID2685 (National Center for Advancing Translational Sciences (NCATS), 2010).
Some of the results follow. Shown are side measurements of this screen, not its main read-out; they come without a call. Compounds called inactive in the main read-out are mostly missing here. The note in brackets gives the kind of curve behind each potency; many fits are weak.

Experiment: qHTS Assay for Lipid Storage Modulators in Drosophila S3 Cells;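 on cell number change: cells counted by Cell Tracker Red CMTPX staining in the red channel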
Conditions: BODIPY lipid droplet fluorescence, 18-24 h; for cell number change: measured here: cell count max response, cells fed with added oleic acid
In short: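 Laser-scanning cytometry quantifies lipid droplet accumulation (500–530 nm total intensity; droplet/cell object ratio) in oleic acid-fed (400 uM added) Drosophila S3 cells treated with a concentration series. 20 uM Triacsin C defined 100% inhibition.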

[1] = measured here: lipid fluorescence (Fed channel) AC50, cells fed with added oleic acid
[2] = measured here: cell number channel AC50, cells fed with added oleic acid

SMILES | cell number change [%] | AC50 [1] | AC50 [2]
CN1CCN(C(=S)SCc2nc(N)nc(Nc3ccc(F)cc3)n2)CC1 | 2.02 | 9.2 µM [falling, single point] | 
CN(C)c1ccc(NC(=S)c2ccccn2)cc1 | -50.5 | 18.4 µM [falling, partial curve, poor fit] | 29.1 µM [falling, single point]
O=C(N/N=C/c1ccco1)c1cc(-c2cccc(Br)c2)nc2ccccc12 | 17.2 | 2.31 µM [falling, partial curve, poor fit] | 
O=C(/C=C/c1ccccc1O)c1ccc(Cl)cc1 | -28.1 | 20.6 µM [falling, single point] | 
Cc1ccnc(NC(=O)c2cnc(Cl)c(Cl)c2)c1 | -15.2 | 29.1 µM [falling, single point] | 
c1ccc(NC2=NCCN2CC2CCCC2)cc1 | 18.1 |  | 
Cn1c(SCC(=O)NCc2ccc(F)cc2)nc2ccccc21 | -31.8 | 29.1 µM [falling, single point] | 29.1 µM [falling, single point]
Cc1ccn2cc(C(=O)Nc3nnc(C)s3)nc2c1 | 1.47 |  | 
CC1CCN(C(=O)CS(=O)(=O)Cc2ccccc2)CC1 |  | 0.58 µM [rising, single point] | 
COc1ccc(CN(C)C(=O)CCN=C2NS(=O)(=O)c3ccccc32)c(OC)c1 | -6.95 | 1.16 µM [falling, full curve] | 1.03 µM [falling, full curve]
Fc1ccc(CN2CCN(c3ncccn3)CC2)cc1 | 7.01 |  | 
O=C(N/C(=C/c1ccc(F)cc1)C(=O)N1CCOCC1)c1ccccc1 | 10.5 | 29.1 µM [rising, single point] | 
CC1=CC(=O)C=C(C)C1=NOc1ccc([N+](=O)[O-])cc1 | 40.7 |  | 7.31 µM [rising, partial curve]
Cc1ccc(N(CC(=O)NC2CCCC2)C(=O)c2nsc(Cl)c2Cl)cc1 | -12.7 | 6.51 µM [rising, single point] | 
CCC(C)(C)NC(=O)C(c1ccc(F)cc1)N(CCOC)C(=O)CCC(=O)Nc1nccs1 (stereo not drawn) |  | 18.4 µM [falling, partial curve] | 
Cn1ncc(Br)c1C(=O)NC1CCCCCC1 | -6.8 |  | 
CCc1ccc(NC(=O)CSc2nnnn2-c2cccnc2)cc1 | -2.21 | 29.1 µM [rising, single point] | 
COc1ccc(C2=NN(C)C(=NCc3ccccc3)SC2)cc1 | 2.38 |  | 2.91 µM [rising, single point]
CCCOC(=O)Nc1ccc(S(=O)(=O)Nn2cnnc2)cc1 | -1.17 | 6.51 µM [rising, partial curve, poor fit] | 
C=CCNC(=O)CN(c1ccc(F)c(Cl)c1)S(C)(=O)=O | -5.93 | 0.731 µM [falling, single point] | 

SMILES | cell number change [%] | AC50 [1] | AC50 [2]
COC(=O)c1cc(CNC(=O)C(C)NS(=O)(=O)c2ccc(C)c(C)c2)ccc1OC (stereo not drawn) |  | 0.58 µM [falling, single point] | 
O=c1cc(O)c2c(=O)n(-c3ccccc3)c3c(c2o1)CCCCC3 | 33.3 |  | 29.1 µM [rising, single point]
COc1ccccc1NC(=O)c1oc2ccccc2c1NC(=O)C1CC1 | 90.4 |  | 29.1 µM [rising, single point]
COc1ccc2cc(CCNC(=O)c3ccco3)c(=O)[nH]c2c1 | -39.3 |  | 35.5 µM [falling, single point]
CC1=CC(C)(C)Nc2ccc(OS(=O)(=O)c3ccc(C)cc3)cc21 |  | 16.4 µM [falling, partial curve, poor fit] | 
CSc1nc(N)nc(SCC(=O)C(C)(C)C)c1C#N | 150 | 0.58 µM [falling, single point] | 14.6 µM [rising, partial curve]
CN(C)CC(=O)Nc1ccc(Oc2ccc(Cl)cc2)cc1 | -39 |  | 4.11 µM [falling, full curve, poor fit]
CCOC(=O)CCN(Cc1cccs1)S(=O)(=O)c1ccc(Cl)cc1 | 12.9 | 0.651 µM [rising, full curve, poor fit] | 
O=C(Nc1ccc(Br)cc1)c1ccc(Br)c(S(=O)(=O)Nc2cccnc2)c1 | 16.4 | 6.51 µM [rising, single point] | 
O=C1SC(c2ccccc2)=N/C1=C/c1ccco1 | 0.805 | 0.651 µM [falling, full curve, poor fit] | 
COC(=O)c1cn(-c2ccccc2)nc1C(=O)OC |  |  | 6.51 µM [rising, single point]
Cc1cc(NC(=O)COC(=O)Cn2c(C)csc2=O)ccc1Br | 36.2 | 20.6 µM [rising, single point] | 14.6 µM [rising, partial curve, poor fit]
COc1ccc(NC(=S)NC(=O)/C=C/c2ccco2)c(OC)c1 | 5.11 |  | 
Cc1ccc(C(C)C)c(OCc2ccc(-c3nnco3)cc2)c1 | -49.9 |  | 29.1 µM [falling, single point]
Cc1ccc(C(c2cc(Cl)c3cccnc3c2O)N2CCN(C)CC2)cc1 (stereo not drawn) | -12.4 |  | 
COc1ccc(Nc2nnc(C)c(=O)[nH]2)cc1 | -19.5 | 6.51 µM [falling, single point] | 0.00517 µM [falling, full curve, poor fit]
CCOc1ccc(CCNC(=O)C2CC(=O)N(CCc3ccc(OC)c(OC)c3)C2)cc1OCC (stereo not drawn) |  |  | 6.51 µM [falling, single point]
CN1C(=O)C(O)(C2COC(C)(C)CC2=O)c2ccccc21 (stereo not drawn) | 0.0764 |  | 
Cc1ccccc1OCC(=O)N/N=C/c1ccncc1 | -15 | 29.1 µM [rising, partial curve, poor fit] | 
CC(=O)OCC1=C(C(=O)O)N2C(=O)C(NC(=O)COc3ccc(F)cc3)C2SC1 (stereo not drawn) | -0.962 | 0.00461 µM [falling, full curve, poor fit] | 

4 structures out of the list, ordered by molar mass, high to low.
SMILES | cell number change [%] | AC50 [1] | AC50 [2]
CCOc1ccc(CCNC(=O)C2CC(=O)N(CCc3ccc(OC)c(OC)c3)C2)cc1OCC (stereo not drawn) |  |  | 6.51 µM [falling, single point]
COC(=O)c1cc(CNC(=O)C(C)NS(=O)(=O)c2ccc(C)c(C)c2)ccc1OC (stereo not drawn) |  | 0.58 µM [falling, single point] | 
Cc1cc(NC(=O)COC(=O)Cn2c(C)csc2=O)ccc1Br | 36.2 | 20.6 µM [rising, single point] | 14.6 µM [rising, partial curve, poor fit]
CSc1nc(N)nc(SCC(=O)C(C)(C)C)c1C#N | 150 | 0.58 µM [falling, single point] | 14.6 µM [rising, partial curve]

Additional results.

SMILES | cell number change [%] | AC50 [1] | AC50 [2]
Cc1csc(=O)n1CC(=O)OCc1nnc(-c2ccccc2)o1 | -28.3 | 29.1 µM [falling, single point] | 
CC1(C(=O)OCC(=O)NC(=O)c2ccccc2)CC1(Cl)Cl (stereo not drawn) | -45.8 |  | 20.6 µM [falling, single point]
O=C1NCCCC1C(=O)N/N=C/c1ccc(Cl)cc1 (stereo not drawn) | -1.25 | 6.51 µM [falling, single point] | 
COc1ccc(COC(=O)C2=C(C)NC(=O)NC2c2ccccc2F)cc1 (stereo not drawn) | -12.9 | 23.1 µM [falling, single point] | 
Cn1c(=O)c(Nc2ccc(Cl)cc2)c2c3c(cccc31)C(=O)c1ccccc1-2 | 9.25 | 20.6 µM [falling, single point] | 
O=C(COC(=O)c1cc(-c2cccs2)nc2ccccc12)NCc1ccco1 | -36.7 | 9.2 µM [falling, partial curve, poor fit] | 7.31 µM [falling, partial curve, poor fit]
Cc1cccc(Oc2nc(-c3ccncc3)nc3ccccc23)c1 | -34.7 | 29.1 µM [falling, single point] | 29.1 µM [falling, single point]
COc1ccccc1C(=O)Nc1cc(C)on1 | 30.5 |  | 14.6 µM [rising, partial curve, poor fit]
COc1cc(OC)cc(C(=O)NC(=S)Nc2ccc3[nH]c(=O)[nH]c3c2)c1 | 61.3 |  | 18.4 µM [rising, partial curve]
Cc1ccc(OCc2cn3cccnc3n2)cc1 | 4.89 | 29.1 µM [rising, single point] | 
CCCCN(CCCC)S(=O)(=O)c1ccc(NC(=O)c2ccc([N+](=O)[O-])cc2Cl)cc1 | -18.4 | 0.58 µM [falling, partial curve, poor fit] | 
COc1cc(CC(=O)OCc2ccccc2F)cc(OC)c1OC | -24.8 |  | 0.231 µM [falling, full curve, poor fit]
O=C(COc1ccc2ccc(=O)oc2c1)Nc1nccs1 | -44.9 | 29.1 µM [falling, single point] | 18.4 µM [falling, partial curve, poor fit]
Cc1ccc(/C=C/C(=O)Nc2cc(=O)n(C)c(=O)n2C)o1 | 36 | 29.1 µM [rising, single point] | 20.6 µM [rising, partial curve]
COc1ccccc1NC(=O)Cn1cnc2sc(C)c(S(=O)(=O)N3CCCCC3)c2c1=O | 17 | 8.2 µM [rising, partial curve] | 
O=C(Nc1nncs1)c1ccc(Br)c(S(=O)(=O)N2CCCC2)c1 |  | 0.58 µM [falling, single point] | 0.58 µM [falling, single point]
CCC(CC)NC(=O)c1cccc(NC(=O)C(C)C)c1 | 3.21 | 6.51 µM [rising, partial curve, poor fit] | 0.13 µM [rising, full curve, poor fit]
COc1cc(OC)cc(C(=O)OCC(=O)Nc2ccc3[nH]c(=O)[nH]c3c2)c1 | 8 |  | 
COc1cc2nc(C3CCC3)nc(N3CCN(c4ccccc4OC)CC3)c2cc1OC | 4.24 | 6.51 µM [falling, single point] | 1.64 µM [rising, partial curve]
O=C(Cn1c2c(sc1=O)C1c3ccccc3OCC1CS2)Nc1ccc(Cl)cc1 (stereo not drawn) | 0.15 | 4.11 µM [falling, single point] | 
